This note sets out measurements from publication PMC7884723.

By UniProt entry, the sequences of proteins in these tests, tags left out.
UniProt Q9Y6Q9: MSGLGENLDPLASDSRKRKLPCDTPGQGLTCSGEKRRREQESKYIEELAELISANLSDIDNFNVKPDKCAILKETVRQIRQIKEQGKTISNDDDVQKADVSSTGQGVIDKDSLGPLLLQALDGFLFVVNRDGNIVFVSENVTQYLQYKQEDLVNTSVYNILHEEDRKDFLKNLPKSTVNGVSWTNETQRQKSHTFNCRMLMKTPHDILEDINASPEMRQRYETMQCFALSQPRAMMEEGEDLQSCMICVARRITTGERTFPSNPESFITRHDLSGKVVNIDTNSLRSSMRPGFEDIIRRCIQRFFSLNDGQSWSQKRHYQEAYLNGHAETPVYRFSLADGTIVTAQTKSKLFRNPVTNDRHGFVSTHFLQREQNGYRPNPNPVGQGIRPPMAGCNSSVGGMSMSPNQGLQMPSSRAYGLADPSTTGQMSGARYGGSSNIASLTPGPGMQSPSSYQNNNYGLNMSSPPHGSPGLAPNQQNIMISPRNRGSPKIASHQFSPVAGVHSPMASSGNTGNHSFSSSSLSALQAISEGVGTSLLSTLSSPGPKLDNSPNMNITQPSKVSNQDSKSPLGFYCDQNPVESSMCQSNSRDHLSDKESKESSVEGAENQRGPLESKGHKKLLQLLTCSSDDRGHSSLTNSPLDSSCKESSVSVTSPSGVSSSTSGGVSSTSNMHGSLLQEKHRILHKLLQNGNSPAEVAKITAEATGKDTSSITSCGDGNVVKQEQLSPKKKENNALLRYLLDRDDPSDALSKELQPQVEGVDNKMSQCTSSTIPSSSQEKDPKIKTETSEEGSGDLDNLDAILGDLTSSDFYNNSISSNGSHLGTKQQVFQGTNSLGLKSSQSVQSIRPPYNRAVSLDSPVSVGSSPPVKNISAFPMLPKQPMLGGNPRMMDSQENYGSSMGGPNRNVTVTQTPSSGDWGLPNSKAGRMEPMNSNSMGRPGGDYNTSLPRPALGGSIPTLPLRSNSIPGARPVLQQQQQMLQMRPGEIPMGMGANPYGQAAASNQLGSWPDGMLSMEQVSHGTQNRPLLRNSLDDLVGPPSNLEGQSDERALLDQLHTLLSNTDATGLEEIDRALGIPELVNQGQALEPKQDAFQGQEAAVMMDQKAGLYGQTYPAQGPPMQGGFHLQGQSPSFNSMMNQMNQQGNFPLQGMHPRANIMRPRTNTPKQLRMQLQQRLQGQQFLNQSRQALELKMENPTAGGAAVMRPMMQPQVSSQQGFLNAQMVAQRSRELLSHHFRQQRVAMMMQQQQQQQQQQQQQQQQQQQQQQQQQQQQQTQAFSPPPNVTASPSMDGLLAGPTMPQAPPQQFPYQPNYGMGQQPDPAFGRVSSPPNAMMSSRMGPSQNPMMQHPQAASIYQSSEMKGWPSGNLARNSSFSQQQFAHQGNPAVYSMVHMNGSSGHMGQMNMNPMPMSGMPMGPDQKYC
UniProt Q09472: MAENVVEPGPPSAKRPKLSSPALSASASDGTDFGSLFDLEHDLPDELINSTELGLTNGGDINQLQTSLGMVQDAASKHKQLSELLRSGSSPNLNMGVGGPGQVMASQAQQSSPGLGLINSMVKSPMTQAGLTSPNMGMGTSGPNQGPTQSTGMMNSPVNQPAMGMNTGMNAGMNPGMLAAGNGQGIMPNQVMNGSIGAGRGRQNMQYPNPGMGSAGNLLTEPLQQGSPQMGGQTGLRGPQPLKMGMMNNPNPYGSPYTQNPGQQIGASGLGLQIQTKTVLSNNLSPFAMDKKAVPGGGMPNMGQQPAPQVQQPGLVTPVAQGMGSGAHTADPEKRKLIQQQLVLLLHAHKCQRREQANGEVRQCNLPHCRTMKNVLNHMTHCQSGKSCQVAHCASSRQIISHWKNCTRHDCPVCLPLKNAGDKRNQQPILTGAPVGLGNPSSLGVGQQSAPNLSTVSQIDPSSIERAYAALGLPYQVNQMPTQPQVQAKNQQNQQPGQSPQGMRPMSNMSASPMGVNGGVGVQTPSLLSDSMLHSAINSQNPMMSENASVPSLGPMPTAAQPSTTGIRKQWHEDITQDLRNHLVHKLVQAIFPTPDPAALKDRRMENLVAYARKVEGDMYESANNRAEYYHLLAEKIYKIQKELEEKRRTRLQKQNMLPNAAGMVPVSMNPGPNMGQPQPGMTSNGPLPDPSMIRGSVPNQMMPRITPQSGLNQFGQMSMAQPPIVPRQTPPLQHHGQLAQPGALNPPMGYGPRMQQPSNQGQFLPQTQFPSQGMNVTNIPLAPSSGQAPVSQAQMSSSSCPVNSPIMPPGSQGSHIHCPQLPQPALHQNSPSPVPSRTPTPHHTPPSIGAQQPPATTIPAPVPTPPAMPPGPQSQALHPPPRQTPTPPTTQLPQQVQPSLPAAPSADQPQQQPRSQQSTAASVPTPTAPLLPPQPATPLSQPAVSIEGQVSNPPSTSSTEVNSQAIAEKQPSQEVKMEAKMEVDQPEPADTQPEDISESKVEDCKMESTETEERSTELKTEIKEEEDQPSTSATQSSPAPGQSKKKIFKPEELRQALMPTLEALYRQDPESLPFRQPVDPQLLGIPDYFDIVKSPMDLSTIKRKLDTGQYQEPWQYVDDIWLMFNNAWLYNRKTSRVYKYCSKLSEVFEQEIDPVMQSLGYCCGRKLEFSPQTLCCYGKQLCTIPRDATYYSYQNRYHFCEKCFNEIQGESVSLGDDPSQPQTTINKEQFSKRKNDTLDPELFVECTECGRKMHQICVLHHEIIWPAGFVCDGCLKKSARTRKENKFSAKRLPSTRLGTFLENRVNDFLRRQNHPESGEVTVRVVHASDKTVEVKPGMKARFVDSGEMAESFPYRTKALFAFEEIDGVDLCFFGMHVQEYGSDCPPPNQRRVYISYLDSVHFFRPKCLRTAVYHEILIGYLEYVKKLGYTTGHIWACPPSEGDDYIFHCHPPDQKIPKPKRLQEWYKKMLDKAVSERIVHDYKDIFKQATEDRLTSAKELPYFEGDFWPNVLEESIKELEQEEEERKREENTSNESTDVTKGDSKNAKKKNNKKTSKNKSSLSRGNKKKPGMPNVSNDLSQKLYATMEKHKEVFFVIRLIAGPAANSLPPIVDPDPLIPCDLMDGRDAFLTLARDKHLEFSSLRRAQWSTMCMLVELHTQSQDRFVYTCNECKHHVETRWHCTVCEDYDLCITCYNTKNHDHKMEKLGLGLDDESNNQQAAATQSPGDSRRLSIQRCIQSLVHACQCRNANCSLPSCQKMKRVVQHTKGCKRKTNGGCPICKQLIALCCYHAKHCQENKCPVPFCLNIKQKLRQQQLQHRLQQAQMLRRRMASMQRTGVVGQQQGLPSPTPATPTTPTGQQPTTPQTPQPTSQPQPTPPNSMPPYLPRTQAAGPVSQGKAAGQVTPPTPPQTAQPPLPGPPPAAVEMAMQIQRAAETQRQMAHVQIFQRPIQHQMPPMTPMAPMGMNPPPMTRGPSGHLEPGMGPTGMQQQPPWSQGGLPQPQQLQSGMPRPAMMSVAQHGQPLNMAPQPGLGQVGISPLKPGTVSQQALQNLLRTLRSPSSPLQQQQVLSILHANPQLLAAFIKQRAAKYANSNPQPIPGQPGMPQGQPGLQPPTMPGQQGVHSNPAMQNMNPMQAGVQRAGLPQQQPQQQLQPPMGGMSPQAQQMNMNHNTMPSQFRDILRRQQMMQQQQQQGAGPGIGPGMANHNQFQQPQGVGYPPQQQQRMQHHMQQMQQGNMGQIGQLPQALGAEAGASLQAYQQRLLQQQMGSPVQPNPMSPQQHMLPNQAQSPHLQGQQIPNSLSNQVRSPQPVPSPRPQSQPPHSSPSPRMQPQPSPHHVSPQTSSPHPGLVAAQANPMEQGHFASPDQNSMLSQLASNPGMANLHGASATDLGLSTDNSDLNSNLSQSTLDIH
UniProt Q99873: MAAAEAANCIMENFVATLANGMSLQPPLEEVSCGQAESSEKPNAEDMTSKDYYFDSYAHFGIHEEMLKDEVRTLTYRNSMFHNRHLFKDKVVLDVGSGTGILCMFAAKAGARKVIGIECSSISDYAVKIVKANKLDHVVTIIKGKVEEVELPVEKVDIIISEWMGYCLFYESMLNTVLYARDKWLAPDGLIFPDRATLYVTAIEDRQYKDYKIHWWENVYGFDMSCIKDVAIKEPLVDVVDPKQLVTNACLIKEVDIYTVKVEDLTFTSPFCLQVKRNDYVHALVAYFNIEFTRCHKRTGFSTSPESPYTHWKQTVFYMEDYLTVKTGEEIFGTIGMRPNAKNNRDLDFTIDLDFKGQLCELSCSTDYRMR
UniProt O96028: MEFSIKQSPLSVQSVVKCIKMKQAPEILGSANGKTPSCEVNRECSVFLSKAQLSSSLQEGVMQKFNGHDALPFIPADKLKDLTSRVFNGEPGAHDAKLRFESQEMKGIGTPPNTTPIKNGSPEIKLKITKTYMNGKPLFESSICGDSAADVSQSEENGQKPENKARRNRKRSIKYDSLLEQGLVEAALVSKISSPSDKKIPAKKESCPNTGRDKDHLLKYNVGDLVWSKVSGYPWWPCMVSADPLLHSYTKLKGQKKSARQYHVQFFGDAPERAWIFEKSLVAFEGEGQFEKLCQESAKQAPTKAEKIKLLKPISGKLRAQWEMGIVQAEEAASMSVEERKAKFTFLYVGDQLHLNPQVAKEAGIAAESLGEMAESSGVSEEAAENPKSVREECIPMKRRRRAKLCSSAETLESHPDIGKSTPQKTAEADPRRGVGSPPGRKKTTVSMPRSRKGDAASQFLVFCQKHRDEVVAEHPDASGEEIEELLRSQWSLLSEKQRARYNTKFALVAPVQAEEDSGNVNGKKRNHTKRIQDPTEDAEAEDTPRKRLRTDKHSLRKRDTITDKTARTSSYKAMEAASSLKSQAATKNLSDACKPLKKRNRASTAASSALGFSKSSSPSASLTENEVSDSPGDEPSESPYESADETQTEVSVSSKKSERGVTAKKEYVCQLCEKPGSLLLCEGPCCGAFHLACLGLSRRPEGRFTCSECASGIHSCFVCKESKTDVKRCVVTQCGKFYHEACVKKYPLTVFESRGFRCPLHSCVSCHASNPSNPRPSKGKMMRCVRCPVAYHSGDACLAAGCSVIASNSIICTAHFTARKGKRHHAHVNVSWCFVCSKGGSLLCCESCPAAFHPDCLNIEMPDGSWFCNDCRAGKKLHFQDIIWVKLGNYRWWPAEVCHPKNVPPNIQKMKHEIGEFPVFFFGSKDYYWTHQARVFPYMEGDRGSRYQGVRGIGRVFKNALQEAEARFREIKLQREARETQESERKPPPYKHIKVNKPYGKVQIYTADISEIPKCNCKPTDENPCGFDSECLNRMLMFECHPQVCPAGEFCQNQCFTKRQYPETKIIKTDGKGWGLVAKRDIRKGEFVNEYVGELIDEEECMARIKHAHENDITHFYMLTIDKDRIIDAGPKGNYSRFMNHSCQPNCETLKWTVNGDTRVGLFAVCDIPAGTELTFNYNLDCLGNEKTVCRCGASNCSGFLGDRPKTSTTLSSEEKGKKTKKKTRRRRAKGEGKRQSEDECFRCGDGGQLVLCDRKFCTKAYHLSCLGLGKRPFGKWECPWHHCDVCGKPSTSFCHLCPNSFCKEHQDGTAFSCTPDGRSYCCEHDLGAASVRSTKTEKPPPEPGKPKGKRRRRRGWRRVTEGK

No constants are given. Whether binding was seen depends on the method and setting. Binding seen in cells or lysates may run through a third protein. These calls come from enrichment with a bait or labelling near it, and not all partners need be listed.

The target in this assay is flag-tagged steroid receptor coactivator-3 (SRC-3-3×flag), expressed in myeloma cells (human) (UniProt Q9Y6Q9). The experiment in a line: affinity purification with mass spectrometry; flag-tagged SRC-3 overexpressed in myeloma cells (MM.1S in the text, LP-1 in the legend), SRC-3 complex immunoprecipitated, silver-stained bands excised for mass spectrometry.

For “p300, endogenous in myeloma cells (from UniProt Q09472 1-2414)”, the binding result is recorded as “binds”. Regarding “PRMT1, endogenous in myeloma cells (from UniProt Q99873 1-371)”, the binding entry is listed as “binds”. With “histone-lysine N-methyltransferase NSD2, endogenous in myeloma cells (from UniProt O96028 1-1365)”, the binding entry is given as “binds”.
